Results deposited as PubChem BioAssay AID1259425 (University of Nebraska Medical Center, 2018)

- Assay: 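Find knockdowns that reproduce the gene expression pattern seen when KSR1 is lost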 (primary screen)
- Cells: HCT116 human colon cancer cells
- Knock-down reagent: siRNA pool against human genes, 50 nM siRNA
- Measured: 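mRNA of six signature genes measured together by branched-DNA assay after 50 nM siRNA pool, blank removed, divided by geometric mean of two housekeeping genes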
- Direction: BNIP3L mRNA: higher = more BNIP3L transcript after knockdown; NDRG1 mRNA: higher = more NDRG1 transcript after knockdown
The deposit covers about 14,000 reagents; this is a part drawn at random. Reagents against one gene are numbered here. Further read-outs or replicates are left out here. No sequences are given here. Not stated in the record: the time to read-out.

How did the screen score MSMO1 (GeneID 6307)?
BNIP3L mRNA, set 1: 0.15; NDRG1 mRNA, set 1: 0.0818

Which result is listed for PPIE (GeneID 10450)?
BNIP3L mRNA, set 1: 0.183; NDRG1 mRNA, set 1: 0.305

With KLF5 (GeneID 688), what does the deposit list?
BNIP3L mRNA, set 1: 0.109; NDRG1 mRNA, set 1: 0.0708

How did the screen score IFNA2 (GeneID 3440)?
BNIP3L mRNA, set 1: 0.0598; NDRG1 mRNA, set 1: 0.212

What is on record for PRUNE2 (GeneID 158471)?
BNIP3L mRNA, set 1: 0.0649; NDRG1 mRNA, set 1: 0.0441

What is on record for TRIM38 (GeneID 10475)?
BNIP3L mRNA, set 1: 0.0884; NDRG1 mRNA, set 1: 0.0716

Which result is listed for UBE2J1 (GeneID 51465)?
BNIP3L mRNA, set 1: 0.0904; NDRG1 mRNA, set 1: 0.205

What did the screen give for TUBA3C (GeneID 7278)?
BNIP3L mRNA, set 1: 0.219; NDRG1 mRNA, set 1: 0.238

With KMT2A (GeneID 4297) #1, what was measured?
BNIP3L mRNA, set 1: 0.103; NDRG1 mRNA, set 1: 0.191

Which result is listed for KMT2A (GeneID 4297) #2?
BNIP3L mRNA, set 1: 0.116; NDRG1 mRNA, set 1: 0.366

For TBP (GeneID 6908), how do the results read?
BNIP3L mRNA, set 1: 0.0744; NDRG1 mRNA, set 1: 0.19

How did the screen score MTG2 (GeneID 26164)?
BNIP3L mRNA, set 1: 0.0972; NDRG1 mRNA, set 1: 0.158

With SIPA1L3 (GeneID 23094), how do the results read?
BNIP3L mRNA, set 1: 0.083; NDRG1 mRNA, set 1: 0.283

For ITFG2 (GeneID 55846), how do the results read?
BNIP3L mRNA, set 1: 0.0816; NDRG1 mRNA, set 1: 0.13

Which result is listed for CD19 (GeneID 930)?
BNIP3L mRNA, set 1: 0.0895; NDRG1 mRNA, set 1: 0.103

With TPCN1 (GeneID 53373), what was measured?
BNIP3L mRNA, set 1: 0.161; NDRG1 mRNA, set 1: 0.112

With SOS1 (GeneID 6654), how do the results read?
BNIP3L mRNA, set 1: 0.0763; NDRG1 mRNA, set 1: 0.784

How did the screen score RMI1 (GeneID 80010)?
BNIP3L mRNA, set 1: 0.158; NDRG1 mRNA, set 1: 0.358

What is on record for CLDN11 (GeneID 5010)?
BNIP3L mRNA, set 1: 0.0634; NDRG1 mRNA, set 1: 0.131

With PRRG3 (GeneID 79057), what does the deposit list?
BNIP3L mRNA, set 1: 0.182; NDRG1 mRNA, set 1: 0.432

Which result is listed for LRRK1 (GeneID 79705)?
BNIP3L mRNA, set 1: 0.0971; NDRG1 mRNA, set 1: 0.137

How did the screen score AGXT2 (GeneID 64902)?
BNIP3L mRNA, set 1: 0.295; NDRG1 mRNA, set 1: 0.774

For CPA6 (GeneID 57094), how do the results read?
BNIP3L mRNA, set 1: 0.0659; NDRG1 mRNA, set 1: 0.229

What is on record for FOXN3 (GeneID 1112) #1?
BNIP3L mRNA, set 1: 0.0444; NDRG1 mRNA, set 1: 0.318

Which result is listed for FOXN3 (GeneID 1112) #2?
BNIP3L mRNA, set 1: 0.235; NDRG1 mRNA, set 1: 0.489

With MYH7B (GeneID 57644), how do the results read?
BNIP3L mRNA, set 1: 0.134; NDRG1 mRNA, set 1: 0.173

What did the screen give for PSEN2 (GeneID 5664)?
BNIP3L mRNA, set 1: 0.129; NDRG1 mRNA, set 1: 0.326

For DDX43 (GeneID 55510), what was measured?
BNIP3L mRNA, set 1: 0.0734; NDRG1 mRNA, set 1: 0.145

5 entries from above, set out differently:
gene knocked down | pool no. | BNIP3L mRNA, set 1 | NDRG1 mRNA, set 1
KMT2A (GeneID 4297) | 1 | 0.103 | 0.191
KMT2A (GeneID 4297) | 2 | 0.116 | 0.366
TBP (GeneID 6908) | 1 | 0.0744 | 0.19
MTG2 (GeneID 26164) | 1 | 0.0972 | 0.158
SIPA1L3 (GeneID 23094) | 1 | 0.083 | 0.283
